Compound in this assay: Cc1cc(ccc1-c1ccccc1)C(=O)N1CCCN(CC1)C(=O)CCl [compound 10]
As to the kind of experiment: probe-labelled cysteine peptide fold change vs DMSO (competition) (log2 fold change); higher = less target engagement (more negative = stronger competition). As to conditions: THP-1, incubation time: 4 h.

Sequences of proteins named here, by UniProt entry; tags and fusion partners are left off. A change or cut given only in a name is not applied to a line headed by its entry.
UniProt Q15029: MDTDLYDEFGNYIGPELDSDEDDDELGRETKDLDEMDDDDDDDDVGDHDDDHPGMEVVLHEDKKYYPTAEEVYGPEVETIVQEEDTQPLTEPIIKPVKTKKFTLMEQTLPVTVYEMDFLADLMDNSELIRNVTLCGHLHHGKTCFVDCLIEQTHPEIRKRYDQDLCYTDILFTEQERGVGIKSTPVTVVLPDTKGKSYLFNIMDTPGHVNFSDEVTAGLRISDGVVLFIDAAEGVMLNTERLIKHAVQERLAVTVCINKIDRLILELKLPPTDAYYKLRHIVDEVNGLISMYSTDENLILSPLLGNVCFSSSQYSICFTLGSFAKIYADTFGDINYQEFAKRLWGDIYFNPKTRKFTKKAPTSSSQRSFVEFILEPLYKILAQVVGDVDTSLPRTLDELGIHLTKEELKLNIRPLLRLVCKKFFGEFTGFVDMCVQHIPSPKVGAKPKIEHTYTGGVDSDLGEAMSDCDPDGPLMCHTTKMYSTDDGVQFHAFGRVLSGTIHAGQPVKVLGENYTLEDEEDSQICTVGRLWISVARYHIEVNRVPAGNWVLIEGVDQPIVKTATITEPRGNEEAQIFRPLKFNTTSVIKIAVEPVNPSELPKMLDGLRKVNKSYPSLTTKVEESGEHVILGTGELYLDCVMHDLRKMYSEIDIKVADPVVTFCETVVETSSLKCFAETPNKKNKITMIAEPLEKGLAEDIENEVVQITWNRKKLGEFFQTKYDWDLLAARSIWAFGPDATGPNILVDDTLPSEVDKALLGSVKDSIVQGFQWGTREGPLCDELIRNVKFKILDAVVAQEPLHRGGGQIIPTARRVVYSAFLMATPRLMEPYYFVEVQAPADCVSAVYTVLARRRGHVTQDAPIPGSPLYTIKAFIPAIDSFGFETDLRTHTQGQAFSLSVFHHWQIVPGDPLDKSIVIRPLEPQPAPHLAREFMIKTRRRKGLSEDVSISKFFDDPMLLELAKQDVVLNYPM
UniProt Q9GZT9: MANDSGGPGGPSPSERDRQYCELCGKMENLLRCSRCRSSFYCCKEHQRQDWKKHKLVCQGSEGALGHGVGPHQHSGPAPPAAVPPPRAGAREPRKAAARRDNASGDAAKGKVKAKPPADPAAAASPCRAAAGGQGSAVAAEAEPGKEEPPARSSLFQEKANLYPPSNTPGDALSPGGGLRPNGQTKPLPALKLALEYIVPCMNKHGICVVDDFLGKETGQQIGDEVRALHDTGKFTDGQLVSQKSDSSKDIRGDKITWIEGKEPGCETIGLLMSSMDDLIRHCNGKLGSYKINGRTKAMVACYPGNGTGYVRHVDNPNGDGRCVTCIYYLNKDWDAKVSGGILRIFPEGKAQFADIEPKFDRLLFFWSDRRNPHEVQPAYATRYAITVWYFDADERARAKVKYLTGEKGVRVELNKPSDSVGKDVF
UniProt Q16610: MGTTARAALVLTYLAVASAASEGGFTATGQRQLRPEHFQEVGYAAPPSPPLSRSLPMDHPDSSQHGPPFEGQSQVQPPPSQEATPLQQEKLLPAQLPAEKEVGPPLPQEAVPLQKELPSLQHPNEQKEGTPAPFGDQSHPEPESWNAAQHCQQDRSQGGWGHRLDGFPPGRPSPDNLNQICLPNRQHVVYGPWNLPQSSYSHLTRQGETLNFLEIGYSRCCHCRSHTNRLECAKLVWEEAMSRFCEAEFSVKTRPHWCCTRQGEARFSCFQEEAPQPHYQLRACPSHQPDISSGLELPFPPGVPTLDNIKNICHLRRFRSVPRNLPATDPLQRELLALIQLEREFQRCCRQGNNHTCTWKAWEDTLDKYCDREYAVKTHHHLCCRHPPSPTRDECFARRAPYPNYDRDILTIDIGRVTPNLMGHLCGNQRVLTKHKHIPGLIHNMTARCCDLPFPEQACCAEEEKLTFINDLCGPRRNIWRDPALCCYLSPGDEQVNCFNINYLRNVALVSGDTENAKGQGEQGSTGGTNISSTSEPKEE
UniProt P55884, whole entry, looked up: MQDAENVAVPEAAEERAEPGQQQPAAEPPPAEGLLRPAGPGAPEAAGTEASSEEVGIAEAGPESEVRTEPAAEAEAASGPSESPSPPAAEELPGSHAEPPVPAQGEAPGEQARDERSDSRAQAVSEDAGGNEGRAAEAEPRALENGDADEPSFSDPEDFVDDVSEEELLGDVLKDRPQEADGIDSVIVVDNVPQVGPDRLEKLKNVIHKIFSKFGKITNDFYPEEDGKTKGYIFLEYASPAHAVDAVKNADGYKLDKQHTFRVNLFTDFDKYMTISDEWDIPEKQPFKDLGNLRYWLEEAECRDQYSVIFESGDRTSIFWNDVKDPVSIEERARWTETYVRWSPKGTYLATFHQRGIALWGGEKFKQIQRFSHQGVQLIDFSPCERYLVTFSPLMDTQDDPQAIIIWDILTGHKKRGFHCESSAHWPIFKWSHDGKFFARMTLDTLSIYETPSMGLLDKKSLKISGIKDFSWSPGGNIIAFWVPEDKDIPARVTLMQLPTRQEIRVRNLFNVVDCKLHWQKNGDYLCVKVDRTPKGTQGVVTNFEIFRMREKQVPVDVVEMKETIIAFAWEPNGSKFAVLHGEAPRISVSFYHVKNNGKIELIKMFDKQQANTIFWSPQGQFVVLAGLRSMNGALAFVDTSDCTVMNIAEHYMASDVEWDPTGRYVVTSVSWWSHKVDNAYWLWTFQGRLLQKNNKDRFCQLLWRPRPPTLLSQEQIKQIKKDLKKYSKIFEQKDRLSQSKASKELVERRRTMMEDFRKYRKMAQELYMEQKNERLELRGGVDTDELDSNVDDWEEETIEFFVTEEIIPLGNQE
UniProt Q9UHF1: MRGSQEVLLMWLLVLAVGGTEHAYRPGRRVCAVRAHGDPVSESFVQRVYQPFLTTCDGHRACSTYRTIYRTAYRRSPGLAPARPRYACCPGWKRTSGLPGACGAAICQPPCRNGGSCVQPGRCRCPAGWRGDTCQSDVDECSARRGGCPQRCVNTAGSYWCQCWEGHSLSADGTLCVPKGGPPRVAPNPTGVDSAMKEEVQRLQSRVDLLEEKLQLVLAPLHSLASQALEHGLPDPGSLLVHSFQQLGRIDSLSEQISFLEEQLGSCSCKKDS
UniProt P47813, whole entry, looked up: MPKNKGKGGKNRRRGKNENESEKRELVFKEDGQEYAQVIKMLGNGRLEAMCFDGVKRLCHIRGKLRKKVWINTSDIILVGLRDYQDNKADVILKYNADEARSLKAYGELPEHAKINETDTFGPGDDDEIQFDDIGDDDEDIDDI
UniProt Q12805: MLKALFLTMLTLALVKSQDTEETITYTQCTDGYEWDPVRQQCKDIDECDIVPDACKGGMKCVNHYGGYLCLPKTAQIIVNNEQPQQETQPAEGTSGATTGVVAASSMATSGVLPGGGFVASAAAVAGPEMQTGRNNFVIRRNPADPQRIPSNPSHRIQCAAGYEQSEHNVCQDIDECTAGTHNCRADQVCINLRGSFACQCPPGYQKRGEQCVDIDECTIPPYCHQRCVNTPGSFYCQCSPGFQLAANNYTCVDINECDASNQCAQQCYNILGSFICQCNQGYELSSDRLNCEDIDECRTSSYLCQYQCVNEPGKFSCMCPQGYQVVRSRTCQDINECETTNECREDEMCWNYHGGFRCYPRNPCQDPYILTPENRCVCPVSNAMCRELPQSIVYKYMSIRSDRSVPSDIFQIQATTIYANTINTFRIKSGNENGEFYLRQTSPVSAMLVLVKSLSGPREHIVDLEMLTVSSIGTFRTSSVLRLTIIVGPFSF
UniProt Q96F86: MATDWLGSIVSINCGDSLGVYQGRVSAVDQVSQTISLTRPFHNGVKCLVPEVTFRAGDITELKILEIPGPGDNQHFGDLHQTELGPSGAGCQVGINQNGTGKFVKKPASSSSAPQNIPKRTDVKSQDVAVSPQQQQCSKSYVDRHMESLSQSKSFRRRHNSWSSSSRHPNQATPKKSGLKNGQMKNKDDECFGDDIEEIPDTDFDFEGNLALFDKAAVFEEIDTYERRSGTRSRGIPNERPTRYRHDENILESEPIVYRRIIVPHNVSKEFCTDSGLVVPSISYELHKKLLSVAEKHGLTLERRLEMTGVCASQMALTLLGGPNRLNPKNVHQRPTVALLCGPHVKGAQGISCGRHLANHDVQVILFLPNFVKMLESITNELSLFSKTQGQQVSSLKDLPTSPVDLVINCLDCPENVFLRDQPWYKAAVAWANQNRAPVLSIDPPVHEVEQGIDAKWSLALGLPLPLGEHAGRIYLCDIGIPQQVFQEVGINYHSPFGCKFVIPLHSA
UniProt Q13144, whole entry, looked up: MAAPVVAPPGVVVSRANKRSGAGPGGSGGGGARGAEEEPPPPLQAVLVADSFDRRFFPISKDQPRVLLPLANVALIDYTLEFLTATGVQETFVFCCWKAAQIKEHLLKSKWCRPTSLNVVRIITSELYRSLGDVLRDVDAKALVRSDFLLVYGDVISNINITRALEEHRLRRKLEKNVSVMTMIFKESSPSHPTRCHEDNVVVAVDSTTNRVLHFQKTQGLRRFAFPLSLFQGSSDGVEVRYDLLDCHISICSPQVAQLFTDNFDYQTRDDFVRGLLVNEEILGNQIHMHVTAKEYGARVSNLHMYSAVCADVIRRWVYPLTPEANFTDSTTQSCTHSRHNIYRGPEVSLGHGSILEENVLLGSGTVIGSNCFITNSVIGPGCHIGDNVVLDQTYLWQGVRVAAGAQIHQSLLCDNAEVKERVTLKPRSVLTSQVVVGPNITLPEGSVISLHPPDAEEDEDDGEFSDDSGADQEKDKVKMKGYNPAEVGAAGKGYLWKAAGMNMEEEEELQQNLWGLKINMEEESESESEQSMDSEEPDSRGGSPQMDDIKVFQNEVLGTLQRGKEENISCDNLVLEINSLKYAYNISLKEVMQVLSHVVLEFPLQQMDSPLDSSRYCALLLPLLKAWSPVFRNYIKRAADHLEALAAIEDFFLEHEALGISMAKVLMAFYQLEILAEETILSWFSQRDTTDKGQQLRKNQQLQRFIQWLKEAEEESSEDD
UniProt P20042, whole entry, looked up: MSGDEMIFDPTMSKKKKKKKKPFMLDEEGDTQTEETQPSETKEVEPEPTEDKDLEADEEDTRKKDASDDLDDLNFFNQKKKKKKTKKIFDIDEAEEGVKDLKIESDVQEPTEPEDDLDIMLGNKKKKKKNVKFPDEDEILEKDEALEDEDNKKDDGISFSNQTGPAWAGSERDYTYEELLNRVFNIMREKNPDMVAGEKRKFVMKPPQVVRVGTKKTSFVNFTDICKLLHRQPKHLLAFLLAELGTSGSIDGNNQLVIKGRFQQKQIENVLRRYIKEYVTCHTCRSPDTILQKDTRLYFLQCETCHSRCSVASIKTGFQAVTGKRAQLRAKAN
UniProt Q96KQ7: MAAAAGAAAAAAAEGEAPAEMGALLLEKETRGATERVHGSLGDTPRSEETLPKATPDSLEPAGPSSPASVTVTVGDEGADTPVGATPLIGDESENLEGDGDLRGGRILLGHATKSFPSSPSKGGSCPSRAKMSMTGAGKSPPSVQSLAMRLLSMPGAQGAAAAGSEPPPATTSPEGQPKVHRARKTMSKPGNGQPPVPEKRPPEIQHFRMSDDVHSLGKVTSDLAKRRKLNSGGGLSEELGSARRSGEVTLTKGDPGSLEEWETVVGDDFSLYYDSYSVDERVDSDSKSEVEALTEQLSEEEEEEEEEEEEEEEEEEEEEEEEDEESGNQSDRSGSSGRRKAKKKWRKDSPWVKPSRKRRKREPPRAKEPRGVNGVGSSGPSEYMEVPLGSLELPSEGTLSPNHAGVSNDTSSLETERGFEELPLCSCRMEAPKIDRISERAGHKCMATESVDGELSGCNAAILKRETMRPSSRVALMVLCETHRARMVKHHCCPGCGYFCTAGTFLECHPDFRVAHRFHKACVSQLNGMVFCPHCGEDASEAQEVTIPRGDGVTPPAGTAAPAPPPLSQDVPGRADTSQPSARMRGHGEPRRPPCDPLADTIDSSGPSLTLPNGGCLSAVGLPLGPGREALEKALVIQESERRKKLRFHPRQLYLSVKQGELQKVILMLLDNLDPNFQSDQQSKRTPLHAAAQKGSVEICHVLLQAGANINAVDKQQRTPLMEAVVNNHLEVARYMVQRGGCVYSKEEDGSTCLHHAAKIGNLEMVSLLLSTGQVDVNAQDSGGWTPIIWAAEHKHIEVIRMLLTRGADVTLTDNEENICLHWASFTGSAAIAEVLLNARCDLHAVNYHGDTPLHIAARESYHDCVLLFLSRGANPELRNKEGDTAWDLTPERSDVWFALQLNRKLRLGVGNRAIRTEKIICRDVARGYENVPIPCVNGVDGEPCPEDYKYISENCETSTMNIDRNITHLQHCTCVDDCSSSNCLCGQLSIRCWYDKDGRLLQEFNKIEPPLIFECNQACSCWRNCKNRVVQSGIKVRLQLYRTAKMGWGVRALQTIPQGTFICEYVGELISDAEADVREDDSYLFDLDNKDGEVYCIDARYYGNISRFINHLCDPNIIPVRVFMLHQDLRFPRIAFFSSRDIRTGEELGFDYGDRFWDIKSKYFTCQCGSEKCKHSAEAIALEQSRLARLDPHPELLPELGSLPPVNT

The other results are listed elsewhere or left out.
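Note: competitive profiling in live THP-1 cells: cysteine peptides tagged with an iodoacetamide desthiobiotin (IA-DTB) probe, intensity after compound treatment relative to DMSO-treated cells.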

For “EEF2K_O00418_213_QVDIMQMCIIELK (UniProt O00418)”, the “probe-labelled cysteine peptide fold change” value amounted to 0.0486 (10 µM) and 0.0302 (50 µM).

As to “EFTUD2_Q15029_780_EGPLCDELIR (UniProt Q15029)”, the “probe-labelled cysteine peptide fold change” value is, setting by setting: (10 µM) -0.1; (50 µM) 0.075.

Regarding “EFL1_Q7Z2Z2_474_LAAAQGQAPLEPTQDGSAIETCPK (UniProt Q7Z2Z2)”, the “probe-labelled cysteine peptide fold change” value reads like this: (10 µM) -0.111; (50 µM) -0.0536.

For “EEF1A1_P68104_411_PMCVESFSDYPPLGR (UniProt P68104)”, the “probe-labelled cysteine peptide fold change” value reads like this: (10 µM) -0.147; (50 µM) 0.165.

On to “EGLN1_Q9GZT9_326_CVTCIYYLNK (UniProt Q9GZT9)”, for which the “probe-labelled cysteine peptide fold change” value runs as follows: (10 µM) 0.165; (50 µM) -0.189.

For the target “EIF2S3_P41091_96_LDDPSCPRPECYR (UniProt P41091)”, the “probe-labelled cysteine peptide fold change” value (10 µM) was -0.123 and the “probe-labelled cysteine peptide fold change” value (50 µM) is 0.265.

For “ECM1_Q16610_450_CCDLPFPEQACCAEEEK (UniProt Q16610)”, the “probe-labelled cysteine peptide fold change” value was -0.221 (10 µM) and 0.0818 (50 µM).

With “EDEM1_Q92611_160_GMFVFGYDNYMAHAFPQDELNPIHCR (UniProt Q92611)”, the “probe-labelled cysteine peptide fold change” value runs as follows: (10 µM) 0.032; (50 µM) 0.21.

Turning to “EIF3B_P55884_384_FSHQGVQLIDFSPCER (UniProt P55884)”, the “probe-labelled cysteine peptide fold change” value (10 µM) amounted to 0.0196 and the “probe-labelled cysteine peptide fold change” value (50 µM) was -0.284.

As for “EHBP1L1_Q8N3D4_1364_FQDTSQYVCAELQALEQEQR (UniProt Q8N3D4)”, the “probe-labelled cysteine peptide fold change” value is, setting by setting: (10 µM) -0.00798; (50 µM) -0.434.

For “EHD4_Q9H223_493+495_LADCDCDGMLDEEEFALAK (UniProt Q9H223)”, the “probe-labelled cysteine peptide fold change” value is, setting by setting: (10 µM) 0.00822; (50 µM) -0.434.

As for “EGFL7_Q9UHF1_267+269_IDSLSEQISFLEEQLGSCSCKK (UniProt Q9UHF1)”, the “probe-labelled cysteine peptide fold change” value runs as follows: (10 µM) 0.316; (50 µM) -0.483.

In the case of “ECM1_Q16610_384_THHHLCCR (UniProt Q16610)”, the “probe-labelled cysteine peptide fold change” value amounted to 0.183 (10 µM) and 0.0137 (50 µM).

As for “EGFL7_Q9UHF1_267_IDSLSEQISFLEEQLGSCSCK (UniProt Q9UHF1)”, the “probe-labelled cysteine peptide fold change” value by setting is: (10 µM) 0.128; (50 µM) 0.309.

Take “EEF2_P13639_567_DLEEDHACIPIKK (UniProt P13639)”: the “probe-labelled cysteine peptide fold change” value was -0.0692 (10 µM) and 0.0362 (50 µM).

As for “EFTUD2_Q15029_256_LAVTVCINK (UniProt Q15029)”, the “probe-labelled cysteine peptide fold change” value reads like this: (10 µM) -0.16; (50 µM) 0.258.

“ECI1_P42126_173_YCIGLNETQLGIIAPFWLK (UniProt P42126)”: the “probe-labelled cysteine peptide fold change” value is, setting by setting: (10 µM) 0.113; (50 µM) 0.0458.

Turning to “EIF1AX_P47813_51_LEAMCFDGVKR (UniProt P47813)”, the “probe-labelled cysteine peptide fold change” value is 0.0401 (10 µM) and -0.252 (50 µM).

“EFEMP1_Q12805_338_TCQDINECETTNECREDEMCWNYHGGFR (UniProt Q12805)”: the “probe-labelled cysteine peptide fold change” value reads like this: (10 µM) -0.451; (50 µM) -0.112.

Take “EDC3_Q96F86_311_LEMTGVCASQMALTLLGGPNR (UniProt Q96F86)”: the “probe-labelled cysteine peptide fold change” value is 0.0796 (10 µM) and -0.0526 (50 µM).

Consider “EEF1D_P29692_247_KLQIQCVVEDDKVGTDLLEEEITKFEEHVQSVDIAAFNK (UniProt P29692)”, for which the “probe-labelled cysteine peptide fold change” value (10 µM) turned out to be 0.0535 and the “probe-labelled cysteine peptide fold change” value (50 µM) is -0.579.

For “EHHADH_Q08426_199_RLCNKPIQSLPNMDSIFSEALLK (UniProt Q08426)”, the “probe-labelled cysteine peptide fold change” value was -0.0292 (10 µM) and -0.205 (50 µM).

“EEF1A2_Q05639_411_SGDAAIVEMVPGKPMCVESFSQYPPLGR (UniProt Q05639)”: the “probe-labelled cysteine peptide fold change” value is -0.261 (10 µM) and -0.239 (50 µM).

For “EIF2D_P41214_386_EQPYHPPDIKPLYCVPASMTLLFQESGHK (UniProt P41214)”, the “probe-labelled cysteine peptide fold change” value reads like this: (10 µM) 0.0939; (50 µM) -0.123.

On to “EEF1A1_P68104_363_NDPPMEAAGFTAQVIILNHPGQISAGYAPVLDCHTAHIACK (UniProt P68104)”, for which the “probe-labelled cysteine peptide fold change” value is, setting by setting: (10 µM) -0.043; (50 µM) 0.0117.

On to “EED_O75530_254_IMSCGMDHSLK (UniProt O75530)”, for which the “probe-labelled cysteine peptide fold change” value runs as follows: (10 µM) -0.111; (50 µM) -0.209.

Regarding “ECPAS_Q5VYK3_1420_SCAFAMGHLVR (UniProt Q5VYK3)”, the “probe-labelled cysteine peptide fold change” value was found to be 0.0125 (10 µM) and 0.151 (50 µM).

Turning to “EEF1AKMT1_Q8WVE0_149_IAAHSFDIVIADPPYLSEECLR (UniProt Q8WVE0)”, the “probe-labelled cysteine peptide fold change” value is 0.0999 (10 µM) and -0.165 (50 µM).

Take “EEF2_P13639_591_ETVSEESNVLCLSK (UniProt P13639)”: the “probe-labelled cysteine peptide fold change” value is, setting by setting: (10 µM) -0.29; (50 µM) -0.311.

For “EIF2B5_Q13144_335_WVYPLTPEANFTDSTTQSCTHSR (UniProt Q13144)”, the “probe-labelled cysteine peptide fold change” value reads like this: (10 µM) 0.00158; (50 µM) 0.277.

As for “EFEMP1_Q12805_190_ADQVCINLR (UniProt Q12805)”, the “probe-labelled cysteine peptide fold change” value is -0.311 (10 µM) and -0.139 (50 µM).

For “EIF2S2_P20042_302_LYFLQCETCHSR (UniProt P20042)”, the “probe-labelled cysteine peptide fold change” value reads like this: (10 µM) 0.0251; (50 µM) 0.074.

As to “EGLN1_Q9GZT9_21_QYCELCGK (UniProt Q9GZT9)”, the “probe-labelled cysteine peptide fold change” value runs as follows: (10 µM) 0.0202; (50 µM) -0.239.

With “EHMT2_Q96KQ7_754_EEDGSTCLHHAAK (UniProt Q96KQ7)”, the “probe-labelled cysteine peptide fold change” value (10 µM) came out at 0.126 and the “probe-labelled cysteine peptide fold change” value (50 µM) was 0.14.

For the target “EFTUD2_Q15029_144_TCFVDCLIEQTHPEIR (UniProt Q15029)”, the “probe-labelled cysteine peptide fold change” value is -0.166 (10 µM) and 0.0774 (50 µM).

Consider “ECM1_Q16610_395_HPPSPTRDECFAR (UniProt Q16610)”, for which the “probe-labelled cysteine peptide fold change” value reads like this: (10 µM) -0.264; (50 µM) -0.241.

On to “EEF1G_P26641_339_FPEELTQTFMSCNLITGMFQR (UniProt P26641)”, for which the “probe-labelled cysteine peptide fold change” value is 0.391 (10 µM) and 0.751 (50 µM).

Consider “EHMT2_Q96KQ7_1098_DGEVYCIDAR (UniProt Q96KQ7)”, for which the “probe-labelled cysteine peptide fold change” value (10 µM) stood at 0.225 and the “probe-labelled cysteine peptide fold change” value (50 µM) turned out to be 0.000564.

As for “EIF3B_P55884_700_DRFCQLLWR (UniProt P55884)”, the “probe-labelled cysteine peptide fold change” value was -0.0412 (10 µM) and 0.305 (50 µM).

Turning to “ECT2_Q9H8V3_661_QIFDVVYEVDGCPANLLSSHR (UniProt Q9H8V3)”, the “probe-labelled cysteine peptide fold change” value by setting is: (10 µM) 0.0914; (50 µM) 0.0103.

As for “EHMT2_Q96KQ7_946_GYENVPIPCVNGVDGEPCPEDYK (UniProt Q96KQ7)”, the “probe-labelled cysteine peptide fold change” value (10 µM) is -0.0885 and the “probe-labelled cysteine peptide fold change” value (50 µM) was determined as 0.137.

For the target “EIF3B_P55884_420_GFHCESSAHWPIFK (UniProt P55884)”, the “probe-labelled cysteine peptide fold change” value (10 µM) was found to be 0.121 and the “probe-labelled cysteine peptide fold change” value (50 µM) is 0.105.

“EEF1A1_P68104_370_GNVAGDSKNDPPMEAAGFTAQVIILNHPGQISAGYAPVLDCHTAHIACK (UniProt P68104)”: the “probe-labelled cysteine peptide fold change” value reads like this: (10 µM) -0.032; (50 µM) -0.853.

As for “EDC3_Q96F86_353_GAQGISCGR (UniProt Q96F86)”, the “probe-labelled cysteine peptide fold change” value was 0.00539 (10 µM) and -0.268 (50 µM).

In the case of “EHMT1_Q9H9B1_954_ENRYDCVVLFLSR (UniProt Q9H9B1)”, the “probe-labelled cysteine peptide fold change” value stood at 0.235 (10 µM) and 0.0096 (50 µM).

On to “EDRF1_Q3B7T1_1074_DAPCELLR (UniProt Q3B7T1)”, for which the “probe-labelled cysteine peptide fold change” value (10 µM) amounted to 0.101 and the “probe-labelled cysteine peptide fold change” value (50 µM) amounted to 0.204.

Regarding “EFTUD2_Q15029_525_VLGENYTLEDEEDSQICTVGR (UniProt Q15029)”, the “probe-labelled cysteine peptide fold change” value is -0.0378 (10 µM) and 0.284 (50 µM).

As to “EIF2B3_Q9NR50_64_ALCAEFK (UniProt Q9NR50)”, the “probe-labelled cysteine peptide fold change” value is 0.136 (10 µM) and -0.126 (50 µM).

Regarding “EFHD2_Q96C19_172_AAAGELQEDSGLCVLAR (UniProt Q96C19)”, the “probe-labelled cysteine peptide fold change” value (10 µM) was -0.176 and the “probe-labelled cysteine peptide fold change” value (50 µM) is -0.498.

Take “EFNB1_P98172_89+101_LYLVRPEQAAACSTVLDPNVLVTCNRPEQEIR (UniProt P98172)”: the “probe-labelled cysteine peptide fold change” value runs as follows: (10 µM) -0.388; (50 µM) -0.49.

Turning to “EFTUD2_Q15029_166_RYDQDLCYTDILFTEQER (UniProt Q15029)”, the “probe-labelled cysteine peptide fold change” value is, setting by setting: (10 µM) -0.0828; (50 µM) -0.161.

As for “EHMT2_Q96KQ7_426+428_GFEELPLCSCR (UniProt Q96KQ7)”, the “probe-labelled cysteine peptide fold change” value (10 µM) was -0.147 and the “probe-labelled cysteine peptide fold change” value (50 µM) is -0.267.

Turning to “EIF2B5_Q13144_618_YCALLLPLLK (UniProt Q13144)”, the “probe-labelled cysteine peptide fold change” value was determined as 0.0519 (10 µM) and 0.494 (50 µM).

For the target “EIF2S2_P20042_302+305_LYFLQCETCHSR (UniProt P20042)”, the “probe-labelled cysteine peptide fold change” value was -0.169 (10 µM) and -0.328 (50 µM).

As to “EEF2_P13639_728_RCLYASVLTAQPR (UniProt P13639)”, the “probe-labelled cysteine peptide fold change” value was -0.0326 (10 µM) and -0.208 (50 µM).

Source of the values: the supplement of paper PMC12067093, “Discovery and optimisation of a covalent ligand for TRIM25 and its application to targeted protein ubiquitination” (Chemical Science, 2025).
